Results are given in words; binding and its absence hold for the method and conditions named. In cells and extracts the contact can be indirect. Some entries that bind do so weakly or less than the wild type.
T1: GPR133 (mouse (endogenous in utricle)) (UniProt Q80T32)
T1 sequence: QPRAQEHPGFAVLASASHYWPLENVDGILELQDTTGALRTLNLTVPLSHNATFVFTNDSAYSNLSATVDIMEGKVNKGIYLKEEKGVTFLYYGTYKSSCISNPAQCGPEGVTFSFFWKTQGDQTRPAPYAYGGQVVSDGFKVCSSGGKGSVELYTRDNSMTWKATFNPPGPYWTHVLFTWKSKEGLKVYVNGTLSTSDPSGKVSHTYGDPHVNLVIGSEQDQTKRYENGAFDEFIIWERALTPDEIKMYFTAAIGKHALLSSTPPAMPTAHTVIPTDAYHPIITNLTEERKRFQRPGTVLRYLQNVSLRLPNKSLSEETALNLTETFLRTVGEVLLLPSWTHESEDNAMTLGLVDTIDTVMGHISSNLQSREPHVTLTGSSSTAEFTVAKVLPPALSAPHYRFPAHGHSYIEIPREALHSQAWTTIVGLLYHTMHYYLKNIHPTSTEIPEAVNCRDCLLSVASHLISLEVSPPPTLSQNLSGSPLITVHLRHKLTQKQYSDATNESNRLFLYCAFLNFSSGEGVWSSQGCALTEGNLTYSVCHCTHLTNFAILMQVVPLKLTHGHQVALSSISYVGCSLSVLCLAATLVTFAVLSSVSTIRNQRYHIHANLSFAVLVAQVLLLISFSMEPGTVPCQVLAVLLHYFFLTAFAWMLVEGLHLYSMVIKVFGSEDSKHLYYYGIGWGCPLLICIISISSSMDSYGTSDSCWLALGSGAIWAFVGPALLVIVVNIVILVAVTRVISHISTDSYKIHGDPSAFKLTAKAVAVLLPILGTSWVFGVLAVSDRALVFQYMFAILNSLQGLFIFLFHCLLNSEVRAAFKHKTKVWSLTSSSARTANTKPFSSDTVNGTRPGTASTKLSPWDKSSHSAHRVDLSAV

Chains of the proteins cited; added tags and fusions are not shown. Residues count along the entry.
UniProt Q6QNK2, residues 26-874: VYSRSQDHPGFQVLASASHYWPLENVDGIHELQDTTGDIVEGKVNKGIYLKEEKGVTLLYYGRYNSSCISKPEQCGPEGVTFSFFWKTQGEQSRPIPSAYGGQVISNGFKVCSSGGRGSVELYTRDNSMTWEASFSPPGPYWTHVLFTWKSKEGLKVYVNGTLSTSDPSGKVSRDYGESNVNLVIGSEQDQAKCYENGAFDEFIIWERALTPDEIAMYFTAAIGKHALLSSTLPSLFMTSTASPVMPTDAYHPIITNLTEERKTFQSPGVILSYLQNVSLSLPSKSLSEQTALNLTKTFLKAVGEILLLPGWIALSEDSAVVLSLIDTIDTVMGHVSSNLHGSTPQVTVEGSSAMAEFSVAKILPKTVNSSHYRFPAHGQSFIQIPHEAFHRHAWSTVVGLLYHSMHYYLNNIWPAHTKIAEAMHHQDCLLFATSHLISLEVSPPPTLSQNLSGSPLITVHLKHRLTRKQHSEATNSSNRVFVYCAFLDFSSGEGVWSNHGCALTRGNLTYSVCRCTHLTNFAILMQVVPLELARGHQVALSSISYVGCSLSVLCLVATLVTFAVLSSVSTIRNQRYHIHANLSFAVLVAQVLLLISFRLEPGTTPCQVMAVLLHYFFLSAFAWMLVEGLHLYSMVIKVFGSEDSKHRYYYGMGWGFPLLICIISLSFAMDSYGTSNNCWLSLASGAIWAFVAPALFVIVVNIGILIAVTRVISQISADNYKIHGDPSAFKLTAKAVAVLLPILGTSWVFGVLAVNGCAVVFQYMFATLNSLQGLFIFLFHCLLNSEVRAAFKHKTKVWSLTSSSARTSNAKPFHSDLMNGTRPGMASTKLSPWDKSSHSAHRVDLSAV
UniProt O88704: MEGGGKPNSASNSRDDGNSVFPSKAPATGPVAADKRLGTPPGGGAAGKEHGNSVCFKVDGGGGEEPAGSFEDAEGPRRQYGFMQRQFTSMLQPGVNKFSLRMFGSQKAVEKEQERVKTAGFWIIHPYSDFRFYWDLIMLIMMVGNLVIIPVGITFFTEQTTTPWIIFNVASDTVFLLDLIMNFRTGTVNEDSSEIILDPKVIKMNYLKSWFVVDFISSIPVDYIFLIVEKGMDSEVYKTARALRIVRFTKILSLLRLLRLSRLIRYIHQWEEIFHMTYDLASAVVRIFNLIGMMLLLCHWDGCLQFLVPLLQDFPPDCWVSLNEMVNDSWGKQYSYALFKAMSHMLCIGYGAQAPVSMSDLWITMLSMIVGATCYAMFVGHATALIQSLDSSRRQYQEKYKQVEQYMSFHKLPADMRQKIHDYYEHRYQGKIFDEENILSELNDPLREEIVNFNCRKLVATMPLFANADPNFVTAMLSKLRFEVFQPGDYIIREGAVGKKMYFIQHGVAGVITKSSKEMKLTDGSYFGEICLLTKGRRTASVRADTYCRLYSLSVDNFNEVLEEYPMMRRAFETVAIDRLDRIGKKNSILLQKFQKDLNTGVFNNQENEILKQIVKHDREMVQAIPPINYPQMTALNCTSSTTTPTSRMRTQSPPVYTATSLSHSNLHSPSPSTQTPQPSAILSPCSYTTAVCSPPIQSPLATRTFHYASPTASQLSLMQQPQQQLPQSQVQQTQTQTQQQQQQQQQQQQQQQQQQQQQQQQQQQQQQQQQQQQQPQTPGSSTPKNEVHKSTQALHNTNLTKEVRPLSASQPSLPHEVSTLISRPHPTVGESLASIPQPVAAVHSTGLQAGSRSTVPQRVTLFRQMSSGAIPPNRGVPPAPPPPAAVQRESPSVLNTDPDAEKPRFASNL
UniProt E1AZ71: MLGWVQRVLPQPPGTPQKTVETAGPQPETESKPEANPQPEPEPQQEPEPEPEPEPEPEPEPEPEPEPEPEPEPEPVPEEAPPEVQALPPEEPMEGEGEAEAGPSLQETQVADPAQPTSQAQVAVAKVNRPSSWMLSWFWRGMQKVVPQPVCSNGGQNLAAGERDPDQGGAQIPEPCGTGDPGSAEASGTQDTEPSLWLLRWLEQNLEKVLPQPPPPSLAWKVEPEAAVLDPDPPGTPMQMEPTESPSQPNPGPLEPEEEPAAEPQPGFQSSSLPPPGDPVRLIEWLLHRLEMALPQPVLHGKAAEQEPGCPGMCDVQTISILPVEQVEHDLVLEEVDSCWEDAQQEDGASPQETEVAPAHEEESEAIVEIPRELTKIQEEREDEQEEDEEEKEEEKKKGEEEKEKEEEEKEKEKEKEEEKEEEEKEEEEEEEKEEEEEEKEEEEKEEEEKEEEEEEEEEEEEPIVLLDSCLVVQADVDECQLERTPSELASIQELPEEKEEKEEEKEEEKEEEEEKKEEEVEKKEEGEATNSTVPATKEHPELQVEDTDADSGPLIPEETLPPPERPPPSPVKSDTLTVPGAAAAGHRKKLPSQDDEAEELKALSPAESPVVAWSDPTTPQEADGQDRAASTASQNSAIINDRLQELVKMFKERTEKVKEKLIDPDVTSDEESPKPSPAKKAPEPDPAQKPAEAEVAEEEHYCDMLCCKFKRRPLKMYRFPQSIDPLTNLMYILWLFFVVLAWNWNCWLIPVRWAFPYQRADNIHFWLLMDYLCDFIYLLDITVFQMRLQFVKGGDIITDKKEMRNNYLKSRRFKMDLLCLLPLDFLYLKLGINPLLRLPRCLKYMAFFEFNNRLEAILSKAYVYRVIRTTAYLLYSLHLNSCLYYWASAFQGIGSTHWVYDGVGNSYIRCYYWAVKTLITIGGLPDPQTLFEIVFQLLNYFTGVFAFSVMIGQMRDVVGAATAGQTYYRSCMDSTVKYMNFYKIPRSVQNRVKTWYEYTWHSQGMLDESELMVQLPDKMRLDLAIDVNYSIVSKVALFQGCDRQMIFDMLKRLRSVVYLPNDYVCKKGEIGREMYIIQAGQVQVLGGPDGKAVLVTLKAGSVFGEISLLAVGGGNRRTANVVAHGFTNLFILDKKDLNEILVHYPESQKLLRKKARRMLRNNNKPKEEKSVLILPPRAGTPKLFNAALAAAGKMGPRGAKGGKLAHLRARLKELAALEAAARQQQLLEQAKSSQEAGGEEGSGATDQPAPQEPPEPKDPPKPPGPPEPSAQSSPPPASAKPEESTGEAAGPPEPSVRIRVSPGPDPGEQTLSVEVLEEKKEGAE


Experiments:
[1] = molecular target: T1, GPR133 (mouse (endogenous in utricle)); test: co-IP
[2] = molecular target: GPR133 (WT full-length GPR133, overexpressed in HEK293 cells) (UniProt Q6QNK2); test: co-IP

Molecule | binding [1] | binding [2]
HCN1 (in HEK293 cells) (from UniProt O88704 1-910) | – | no binding
CNGA1 (protein, UniProt P29974 1-684) MKTNIINTWHSFVNIPNVIVPAIEKEIRRMENGACSSFSDDDNGSLSEESENEDSFFRSNSYKRRGPSQREQHLPGTMALFNVNNSSNKDQEPKEKKKKKKEKKSKADDKNENKKDPEKKKKKEKEKEKKKKEEKTKEKKEEEKKEVVVIDPSGNTYYNWLFCITLPVMYNWTMIIARACFDELQSDYLEYWLIFDYVSDVVYLADMFVRTRTGYLEQGLLVKDRMKLIEKYKANLQFKLDVLSVIPTDLLYIKFGWNYPEIRLNRLLRISRMFEFFQRTETRTNYPNIFRISNLVMYIVIIIHWNACVYYSISKAIGFGNDTWVYPDVNDPEFGRLARKYVYSLYWSTLTLTTIGETPPPVLDSEYIFVVVDFLIGVLIFATIVGNIGSMISNMNAARAEFQSRVDAIKQYMNFRNVSKDMEKRVIKWFDYLWTNKKTVDEREVLRYLPDKLRAEIAINVHLDTLKKVRIFADCEAGLLVELVLKLQPQVYSPGDYICKKGDIGREMYIIKEGKLAVVADDGITQFVVLSDGSYFGEISILNIKGSKAGNRRTANIKSIGYSDLFCLSKDDLMEALTEYPDAKTMLEEKGRQILMKDGLLDINIANMGSDPKDLEEKVTRMEGSVDLLQTRFARILAEYESMQQKLKQRLTKVEKFLKPLIETEFSALEEPGGESELTESLQD | no binding | –
HCN4 (protein, UniProt O70507 1-1201) MDKLPPSMRKRLYSLPQQVGAKAWIMDEEEDGEEEGAGGRQDPSRRSIRLRPLPSPSPSVAAGCSESRGAALGATESEGPGRSAGKSSTNGDCRRFRGSLASLGSRGGGSGGAGGGSSLGHLHDSAEERRLIAAEGDASPGEDRTPPGLATEPERPATAAQPAASPPPQQPPQPASASCEQPSADTAIKVEGGAAASDQILPEAEVRLGQSGFMQRQFGAMLQPGVNKFSLRMFGSQKAVEREQERVKSAGFWIIHPYSDFRFYWDLTMLLLMVGNLIIIPVGITFFKDENTTPWIVFNVVSDTFFLIDLVLNFRTGIVVEDNTEIILDPQRIKMKYLKSWFVVDFISSIPVDYIFLIVETRIDSEVYKTARALRIVRFTKILSLLRLLRLSRLIRYIHQWEEIFHMTYDLASAVVRIVNLIGMMLLLCHWDGCLQFLVPMLQDFPHDCWVSINGMVNNSWGKQYSYALFKAMSHMLCIGYGRQAPVGMSDVWLTMLSMIVGATCYAMFIGHATALIQSLDSSRRQYQEKYKQVEQYMSFHKLPPDTRQRIHDYYEHRYQGKMFDEESILGELSEPLREEIINFNCRKLVASMPLFANADPNFVTSMLTKLRFEVFQPGDYIIREGTIGKKMYFIQHGVVSVLTKGNKETKLADGSYFGEICLLTRGRRTASVRADTYCRLYSLSVDNFNEVLEEYPMMRRAFETVALDRLDRIGKKNSILLHKVQHDLNSGVFNYQENEIIQQIVRHDREMAHCAHRVQAAASATPTPTPVIWTPLIQAPLQAAAATTSVAIALTHHPRLPAAIFRPPPGPGLGNLGAGQTPRHPRRLQSLIPSALGSASPASSPSQVDTPSSSSFHIQQLAGFSAPPGLSPLLPSSSSSPPPGACGSPPAPTPSTSTAAAASTTGFGHFHKALGGSLSSSDSPLLTPLQPGARSPQAAQPPPPLPGARGGLGLLEHFLPPPPSSRSPSSSPGQLGQPPGELSLGLAAGPSSTPETPPRPERPSFMAGASGGASPVAFTPRGGLSPPGHSPGPPRTFPSAPPRASGSHGSLLLPPASSPPPPQVPQRRGTPPLTPGRLTQDLKLISASQPALPQDGAQTLRRASPHSSGESVAAFSLYPRAGGGSGSSGGLGPPGRPYGAIPGQHVTLPRKTSSGSLPPPLSLFGARAASSGGPPLTTAAPQREPGARSEPVRSKLPSNL | no binding | –
HCN4 (in HEK293 cells) (protein, UniProt O70507 1-1201) MDKLPPSMRKRLYSLPQQVGAKAWIMDEEEDGEEEGAGGRQDPSRRSIRLRPLPSPSPSVAAGCSESRGAALGATESEGPGRSAGKSSTNGDCRRFRGSLASLGSRGGGSGGAGGGSSLGHLHDSAEERRLIAAEGDASPGEDRTPPGLATEPERPATAAQPAASPPPQQPPQPASASCEQPSADTAIKVEGGAAASDQILPEAEVRLGQSGFMQRQFGAMLQPGVNKFSLRMFGSQKAVEREQERVKSAGFWIIHPYSDFRFYWDLTMLLLMVGNLIIIPVGITFFKDENTTPWIVFNVVSDTFFLIDLVLNFRTGIVVEDNTEIILDPQRIKMKYLKSWFVVDFISSIPVDYIFLIVETRIDSEVYKTARALRIVRFTKILSLLRLLRLSRLIRYIHQWEEIFHMTYDLASAVVRIVNLIGMMLLLCHWDGCLQFLVPMLQDFPHDCWVSINGMVNNSWGKQYSYALFKAMSHMLCIGYGRQAPVGMSDVWLTMLSMIVGATCYAMFIGHATALIQSLDSSRRQYQEKYKQVEQYMSFHKLPPDTRQRIHDYYEHRYQGKMFDEESILGELSEPLREEIINFNCRKLVASMPLFANADPNFVTSMLTKLRFEVFQPGDYIIREGTIGKKMYFIQHGVVSVLTKGNKETKLADGSYFGEICLLTRGRRTASVRADTYCRLYSLSVDNFNEVLEEYPMMRRAFETVALDRLDRIGKKNSILLHKVQHDLNSGVFNYQENEIIQQIVRHDREMAHCAHRVQAAASATPTPTPVIWTPLIQAPLQAAAATTSVAIALTHHPRLPAAIFRPPPGPGLGNLGAGQTPRHPRRLQSLIPSALGSASPASSPSQVDTPSSSSFHIQQLAGFSAPPGLSPLLPSSSSSPPPGACGSPPAPTPSTSTAAAASTTGFGHFHKALGGSLSSSDSPLLTPLQPGARSPQAAQPPPPLPGARGGLGLLEHFLPPPPSSRSPSSSPGQLGQPPGELSLGLAAGPSSTPETPPRPERPSFMAGASGGASPVAFTPRGGLSPPGHSPGPPRTFPSAPPRASGSHGSLLLPPASSPPPPQVPQRRGTPPLTPGRLTQDLKLISASQPALPQDGAQTLRRASPHSSGESVAAFSLYPRAGGGSGSSGGLGPPGRPYGAIPGQHVTLPRKTSSGSLPPPLSLFGARAASSGGPPLTTAAPQREPGARSEPVRSKLPSNL | – | no binding
CNGA3 (in HEK293 cells) (protein, UniProt Q9JJZ8 1-631) MAKVNTQCSQPSPTQLSIKNADRDLDHVENGLGRVSRLIISIRAWASRHLHDEDQTPDSFLDRFHGSELKEVSTRESNAQPNPGEQKPPDGGEGRKEEPIVVDPSSNIYYRWLTAIALPVFYNWCLLVCRACFDELQSEHLTLWLVLDYSADVLYVLDMLVRARTGFLEQGLMVRDTKRLWKHYTKTLHFKLDILSLIPTDLAYLKLGVNYPELRFNRLLKFSRLFEFFDRTETRTNYPNVFRIGNLVLYTLIIIHWNACIYFAISKFIGFGTDSWVYPNTSKPEYARLSRKYIYSLYWSTLTLTTIGETPPPVKDEEYLFVVIDFLVGILIFATIVGNVGSMISNMNAPRVEFQAKIDSVKQYMQFRKVTKDLETRVIRWFDYLWANRKTVDEKEVLKNLPDKLKAEIAINVHLDTLKKVRIFQDCEAGLLVELVLKLRPTVFSPGDYICKKGDIGREMYIIKEGKLAVVADDGVTQFVVLSDGSYFGEISILNIKGSKSGNRRTANIRSIGYSDLFCLSKDDLMEALTEYPDAKRALEEKGRQILMKDNLIDEDLVAARVDTRDVEEKVEYLESSLDILQTRFARLLAEYSASQMKLKQRLTRLESQMNRRCCGFSPDRENSEDASKTD | – | binds

The remaining lines, values ahead:

binding [1] | binding [2] | Molecule
no binding | – | CNGB1 (from UniProt E1AZ71 1-1325)
no binding | – | HCN1 (from UniProt O88704 1-910)
– | no binding | CNGA1 (in HEK293 cells) (protein, UniProt P29974 1-684) MKTNIINTWHSFVNIPNVIVPAIEKEIRRMENGACSSFSDDDNGSLSEESENEDSFFRSNSYKRRGPSQREQHLPGTMALFNVNNSSNKDQEPKEKKKKKKEKKSKADDKNENKKDPEKKKKKEKEKEKKKKEEKTKEKKEEEKKEVVVIDPSGNTYYNWLFCITLPVMYNWTMIIARACFDELQSDYLEYWLIFDYVSDVVYLADMFVRTRTGYLEQGLLVKDRMKLIEKYKANLQFKLDVLSVIPTDLLYIKFGWNYPEIRLNRLLRISRMFEFFQRTETRTNYPNIFRISNLVMYIVIIIHWNACVYYSISKAIGFGNDTWVYPDVNDPEFGRLARKYVYSLYWSTLTLTTIGETPPPVLDSEYIFVVVDFLIGVLIFATIVGNIGSMISNMNAARAEFQSRVDAIKQYMNFRNVSKDMEKRVIKWFDYLWTNKKTVDEREVLRYLPDKLRAEIAINVHLDTLKKVRIFADCEAGLLVELVLKLQPQVYSPGDYICKKGDIGREMYIIKEGKLAVVADDGITQFVVLSDGSYFGEISILNIKGSKAGNRRTANIKSIGYSDLFCLSKDDLMEALTEYPDAKTMLEEKGRQILMKDGLLDINIANMGSDPKDLEEKVTRMEGSVDLLQTRFARILAEYESMQQKLKQRLTKVEKFLKPLIETEFSALEEPGGESELTESLQD
binds | – | CNGA3 (protein, UniProt Q9JJZ8 1-631) MAKVNTQCSQPSPTQLSIKNADRDLDHVENGLGRVSRLIISIRAWASRHLHDEDQTPDSFLDRFHGSELKEVSTRESNAQPNPGEQKPPDGGEGRKEEPIVVDPSSNIYYRWLTAIALPVFYNWCLLVCRACFDELQSEHLTLWLVLDYSADVLYVLDMLVRARTGFLEQGLMVRDTKRLWKHYTKTLHFKLDILSLIPTDLAYLKLGVNYPELRFNRLLKFSRLFEFFDRTETRTNYPNVFRIGNLVLYTLIIIHWNACIYFAISKFIGFGTDSWVYPNTSKPEYARLSRKYIYSLYWSTLTLTTIGETPPPVKDEEYLFVVIDFLVGILIFATIVGNVGSMISNMNAPRVEFQAKIDSVKQYMQFRKVTKDLETRVIRWFDYLWANRKTVDEKEVLKNLPDKLKAEIAINVHLDTLKKVRIFQDCEAGLLVELVLKLRPTVFSPGDYICKKGDIGREMYIIKEGKLAVVADDGVTQFVVLSDGSYFGEISILNIKGSKSGNRRTANIRSIGYSDLFCLSKDDLMEALTEYPDAKRALEEKGRQILMKDNLIDEDLVAARVDTRDVEEKVEYLESSLDILQTRFARLLAEYSASQMKLKQRLTRLESQMNRRCCGFSPDRENSEDASKTD

Reference: article doi:10.1101/2023.10.24.563882
